Results are given in words; binding and its absence hold for the method and conditions named. In cells and extracts the contact can be indirect. These calls come from enrichment with a bait or labelling near it, and not all partners need be listed.
B1: ARHGAP11A (protein, UniProt Q6P4F7 1-1023)
chain: MWDQRLVRLALLQHLRAFYGIKVKGVRGQCDRRRHETAATEIGGKIFGVPFNALPHSAVPEYGHIPSFLVDACTSLEDHIHTEGLFRKSGSVIRLKALKNKVDHGEGCLSSAPPCDIAGLLKQFFRELPEPILPADLHEALLKAQQLGTEEKNKATLLLSCLLADHTVHVLRYFFNFLRNVSLRSSENKMDSSNLAVIFAPNLLQTSEGHEKMSSNTEKKLRLQAAVVQTLIDYASDIGRVPDFILEKIPAMLGIDGLCATPSLEGFEEGEYETPGEYKRKRRQSVGDFVSGALNKFKPNRTPSITPQEERIAQLSESPVILTPNAKRTLPVDSSHGFSSKKRKSIKHNFNFELLPSNLFNSSSTPVSVHIDTSSEGSSQSSLSPVLIGGNHLITAGVPRRSKRIAGKKVCRVESGKAGCFSPKISHKEKVRRSLRLKFNLGKNGREVNGCSGVNRYESVGWRLANQQSLKNRIESVKTGLLFSPDVDEKLPKKGSEKISKSEETLLTPERLVGTNYRMSWTGPNNSSFQEVDANEASSMVENLEVENSLEPDIMVEKSPATSCELTPSNLNNKHNSNITSSPLSGDENNMTKETLVKVQKAFSESGSNLHALMNQRQSSVTNVGKVKLTEPSYLEDSPEENLFETNDLTIVESKEKYEHHTGKGEKCFSERDFSPLQTQTFNRETTIKCYSTQMKMEHEKDIHSNMPKDYLSKQEFSSDEEIKKQQSPKDKLNNKLKENENMMEGNLPKCAAHSKDEARSSFSQQSTCVVTNLSKPRPMRIAKQQSLETCEKTVSESSQMTEHRKVSDHIQWFNKLSLNEPNRIKVKSPLKFQRTPVRQSVRRINSLLEYSRQPTGHKLASLGDTASPLVKSVSCDGALSSCIESASKDSSVSCIKSGPKEQKSMSCEESNIGAISKSSMELPSKSFLKMRKHPDSVNASLRSTTVYKQKILSDGQVKVPLDDLTNHDIVKPVVNNNMGISSGINNRVLRRPSERGRAWYKGSPKHPIGKTQLLPTSKPVDL
B2: RACGAP1 (protein, UniProt Q9H0H5 1-632)
chain: MDTMMLNVRNLFEQLVRRVEILSEGNEVQFIQLAKDFEDFRKKWQRTDHELGKYKDLLMKAETERSALDVKLKHARNQVDVEIKRRQRAEADCEKLERQIQLIREMLMCDTSGSIQLSEEQKSALAFLNRGQPSSSNAGNKRLSTIDESGSILSDISFDKTDESLDWDSSLVKTFKLKKREKRRSTSRQFVDGPPGPVKKTRSIGSAVDQGNESIVAKTTVTVPNDGGPIEAVSTIETVPYWTRSRRKTGTLQPWNSDSTLNSRQLEPRTETDSVGTPQSNGGMRLHDFVSKTVIKPESCVPCGKRIKFGKLSLKCRDCRVVSHPECRDRCPLPCIPTLIGTPVKIGEGMLADFVSQTSPMIPSIVVHCVNEIEQRGLTETGLYRISGCDRTVKELKEKFLRVKTVPLLSKVDDIHAICSLLKDFLRNLKEPLLTFRLNRAFMEAAEITDEDNSIAAMYQAVGELPQANRDTLAFLMIHLQRVAQSPHTKMDVANLAKVFGPTIVAHAVPNPDPVTMLQDIKRQPKVVERLLSLPLEYWSQFMMVEQENIDPLHVIENSNAFSTPQTPDIKVSLLGPVTTPEHQLLKTPSSSSLSQRVRSTLTKNTPRFGSKSKSATNLGRQGNFFASPMLK
B3: KIFC1 (protein, UniProt Q9BW19 1-673)
chain: MDPQRSPLLEVKGNIELKRPLIKAPSQLPLSGSRLKRRPDQMEDGLEPEKKRTRGLGATTKITTSHPRVPSLTTVPQTQGQTTAQKVSKKTGPRCSTAIATGLKNQKPVPAVPVQKSGTSGVPPMAGGKKPSKRPAWDLKGQLCDLNAELKRCRERTQTLDQENQQLQDQLRDAQQQVKALGTERTTLEGHLAKVQAQAEQGQQELKNLRACVLELEERLSTQEGLVQELQKKQVELQEERRGLMSQLEEKERRLQTSEAALSSSQAEVASLRQETVAQAALLTEREERLHGLEMERRRLHNQLQELKGNIRVFCRVRPVLPGEPTPPPGLLLFPSGPGGPSDPPTRLSLSRSDERRGTLSGAPAPPTRHDFSFDRVFPPGSGQDEVFEEIAMLVQSALDGYPVCIFAYGQTGSGKTFTMEGGPGGDPQLEGLIPRALRHLFSVAQELSGQGWTYSFVASYVEIYNETVRDLLATGTRKGQGGECEIRRAGPGSEELTVTNARYVPVSCEKEVDALLHLARQNRAVARTAQNERSSRSHSVFQLQISGEHSSRGLQCGAPLSLVDLAGSERLDPGLALGPGERERLRETQAINSSLSTLGLVIMALSNKESHVPYRNSKLTYLLQNSLGGSAKMLMFVNISPLEENVSESLNSLRFASKVNQCVIGTAQANRK
B4: Rb transcriptional corepressor 1 (RBL1) (protein, UniProt P28749 1-1068)
chain: MFEDKPHAEGAAVVAAAGEALQALCQELNLDEGSAAEALDDFTAIRGNYSLEGEVTHWLACSLYVACRKSIIPTVGKGIMEGNCVSLTRILRSAKLSLIQFFSKMKKWMDMSNLPQEFRERIERLERNFEVSTVIFKKYEPIFLDIFQNPYEEPPKLPRSRKQRRIPCSVKDLFNFCWTLFVYTKGNFRMIGDDLVNSYHLLLCCLDLIFANAIMCPNRQDLLNPSFKGLPSDFHTADFTASEEPPCIIAVLCELHDGLLVEAKGIKEHYFKPYISKLFDRKILKGECLLDLSSFTDNSKAVNKEYEEYVLTVGDFDERIFLGADAEEEIGTPRKFTRDTPLGKLTAQANVEYNLQQHFEKKRSFAPSTPLTGRRYLREKEAVITPVASATQSVSRLQSIVAGLKNAPSDQLINIFESCVRNPVENIMKILKGIGETFCQHYTQSTDEQPGSHIDFAVNRLKLAEILYYKILETVMVQETRRLHGMDMSVLLEQDIFHRSLMACCLEIVLFAYSSPRTFPWIIEVLNLQPFYFYKVIEVVIRSEEGLSRDMVKHLNSIEEQILESLAWSHDSALWEALQVSANKVPTCEEVIFPNNFETGNGGNVQGHLPLMPMSPLMHPRVKEVRTDSGSLRRDMQPLSPISVHERYSSPTAGSAKRRLFGEDPPKEMLMDKIITEGTKLKIAPSSSITAENVSILPGQTLLTMATAPVTGTTGHKVTIPLHGVANDAGEITLIPLSMNTNQESKVKSPVSLTAHSLIGASPKQTNLTKAQEVHSTGINRPKRTGSLALFYRKVYHLASVRLRDLCLKLDVSNELRRKIWTCFEFTLVHCPDLMKDRHLDQLLLCAFYIMAKVTKEERTFQEIMKSYRNQPQANSHVYRSVLLKSIPREVVAYNKNINDDFEMIDCDLEDATKTPDCSSGPVKEERGDLIKFYNTIYVGRVKSFALKYDLANQDHMMDAPPLSPFPHIKQQPGSPRRISQQHSIYISPHKNGSGLTPRSALLYKFNGSPSKSLKDINNMIRQGEQRTKKRVIAIDSDAESPAKRVCQENDDVLLKRLQDVVSERANH
B5: MAU2 sister chromatid cohesion factor (protein, UniProt Q9Y6X3 1-613)
chain: MAAQAAAAAQAAAAQAAQAEAADSWYLALLGFAEHFRTSSPPKIRLCVHCLQAVFPFKPPQRIEARTHLQLGSVLYHHTKNSEQARSHLEKAWLISQQIPQFEDVKFEAASLLSELYCQENSVDAAKPLLRKAIQISQQTPYWHCRLLFQLAQLHTLEKDLVSACDLLGVGAEYARVVGSEYTRALFLLSKGMLLLMERKLQEVHPLLTLCGQIVENWQGNPIQKESLRVFFLVLQVTHYLDAGQVKSVKPCLKQLQQCIQTISTLHDDEILPSNPADLFHWLPKEHMCVLVYLVTVMHSMQAGYLEKAQKYTDKALMQLEKLKMLDCSPILSSFQVILLEHIIMCRLVTGHKATALQEISQVCQLCQQSPRLFSNHAAQLHTLLGLYCVSVNCMDNAEAQFTTALRLTNHQELWAFIVTNLASVYIREGNRHQEVLYSLLERINPDHSFPVSSHCLRAAAFYVRGLFSFFQGRYNEAKRFLRETLKMSNAEDLNRLTACSLVLLGHIFYVLGNHRESNNMVVPAMQLASKIPDMSVQLWSSALLRDLNKACGNAMDAHEAAQMHQNFSQQLLQDHIEACSLPEHNLITWTDGPPPVQFQAQNGPNTSLASLL
B6: CCCTC-binding factor (CTCF) (protein, UniProt P49711 1-727)
chain: MEGDAVEAIVEESETFIKGKERKTYQRRREGGQEEDACHLPQNQTDGGEVVQDVNSSVQMVMMEQLDPTLLQMKTEVMEGTVAPEAEAAVDDTQIITLQVVNMEEQPINIGELQLVQVPVPVTVPVATTSVEELQGAYENEVSKEGLAESEPMICHTLPLPEGFQVVKVGANGEVETLEQGELPPQEDPSWQKDPDYQPPAKKTKKTKKSKLRYTEEGKDVDVSVYDFEEEQQEGLLSEVNAEKVVGNMKPPKPTKIKKKGVKKTFQCELCSYTCPRRSNLDRHMKSHTDERPHKCHLCGRAFRTVTLLRNHLNTHTGTRPHKCPDCDMAFVTSGELVRHRRYKHTHEKPFKCSMCDYASVEVSKLKRHIRSHTGERPFQCSLCSYASRDTYKLKRHMRTHSGEKPYECYICHARFTQSGTMKMHILQKHTENVAKFHCPHCDTVIARKSDLGVHLRKQHSYIEQGKKCRYCDAVFHERYALIQHQKSHKNEKRFKCDQCDYACRQERHMIMHKRTHTGEKPYACSHCDKTFRQKQLLDMHFKRYHDPNFVPAAFVCSKCGKTFTRRNTMARHADNCAGPDGVEGENGGETKKSKRGRKRKMRSKKEDSSDSENAEPDLDDNEDEEEPAVEIEPEPEPQPVTPAPPPAKKRRGRPPGRTNQPKQNQPTAIIQVEDQNTGAIENIIVEVKKEPDAEPAEGEEEEAQPAATDAPNGDLTPEMILSMMDR
B7: ribosome biogenesis regulator BYSL (protein, UniProt Q13895 1-437)
chain: MPKFKAARGVGGQEKHAPLADQILAGNAVRAGVREKRRGRGTGEAEEEYVGPRLSRRILQQARQQQEELEAEHGTGDKPAAPRERTTRLGPRMPQDGSDDEDEEWPTLEKAATMTAAGHHAEVVVDPEDERAIEMFMNKNPPARRTLADIIMEKLTEKQTEVETVMSEVSGFPMPQLDPRVLEVYRGVREVLSKYRSGKLPKAFKIIPALSNWEQILYVTEPEAWTAAAMYQATRIFASNLKERMAQRFYNLVLLPRVRDDVAEYKRLNFHLYMALKKALFKPGAWFKGILIPLCESGTCTLREAIIVGSIITKCSIPVLHSSAAMLKIAEMEYSGANSIFLRLLLDKKYALPYRVLDALVFHFLGFRTEKRELPVLWHQCLLTLVQRYKADLATDQKEALLELLRLQPHPQLSPEIRRELQSAVPRDVEDVPITVE

Chains of the proteins cited; added tags and fusions are not shown.
UniProt Q8IVV7: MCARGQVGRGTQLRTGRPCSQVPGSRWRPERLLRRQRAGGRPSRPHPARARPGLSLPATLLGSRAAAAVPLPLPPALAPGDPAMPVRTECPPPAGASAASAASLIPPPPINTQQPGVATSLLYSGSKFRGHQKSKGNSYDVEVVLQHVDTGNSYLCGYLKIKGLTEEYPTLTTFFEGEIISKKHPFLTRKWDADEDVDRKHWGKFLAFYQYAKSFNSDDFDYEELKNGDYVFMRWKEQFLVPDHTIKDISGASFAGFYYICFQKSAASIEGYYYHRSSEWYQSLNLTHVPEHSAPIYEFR

Each binder was assayed against BirA2-Flag-GID4 fusion protein (human) (UniProt Q8IVV7) (assay: proximity labelling; BioID2: BirA2-Flag-tagged bait in Flp-In T-REx HeLa cells, tetracycline 1 μg/ml and biotin 50 μM for 24 h, with or without MG132 (5 μM); biotinylated proteins on streptavidin beads, mass spectrometry, SAINT against BirA2-Flag-EGFP, BFDR ≤ 0.01).
For B1, the binding was “binds”.
B2 was tested, and the binding was “binds”.
B3 was tested, and the binding was “binds”.
With B4 the binding was “binds”.
For B5, the binding was “binds”.
B6 was tested, and the binding was “binds”.
In the case of B7, the binding is reported as “binds”.
